Laboratory results published in PMC3153501 (PLoS ONE, 2011).

test: peptide synthesis; details: whole synthesis

Question: Which difficulty met does the source give for SIPPIFQLCL here?
Answer: Its difficulty met is “Denotes peptides that could not be synthesized at high purity”.

Question: For CMLKGRAGT, which difficulty met is on record?
Answer: Its difficulty met is “Denotes peptides that could not be synthesized at high purity”.

Question: For ASGDKIVMVV, which difficulty met is on record?
Answer: The difficulty met was “Denotes peptides that could not be synthesized at high purity”.

Question: With FLWDVLATT as the sequence, how does the difficulty met read?
Answer: The difficulty met was “Denotes peptides that could not be synthesized at high purity”.

Question: For LYNELYVYNI, which difficulty met is on record?
Answer: The difficulty met was “Denotes peptides that could not be synthesized at high purity”.

Where a sequence shows no end group, the ends are not given.
